# From US10066159B2, “Composite nanoparticles including a phthalic acid derivative” (3M INNOVATIVE PROPERTIES COMPANY, priority 2013, dated 2018)
# Experiment: Quantum yield of ligand-treated green InP nanocrystals, Method 1 (toluene, Quantaurus spectrometer)
# Conditions: ratio of QY of example ligand solution to QY of Reference 1 (DDSA), Stock Solution 1, toluene, 90° C. for 1.5 hours, excitation 440 nm
row,Compound,Quantum Yield (QY) relative to DDSA
1,"CCCCCCOc1ccc(C(=O)O)c(C(=O)O)c1 [Example 1, 4-hexyloxyphthalic Acid]",0.96
2,"CCCCCCCCOc1cc(C(=O)O)c(C(=O)O)cc1OCCCCCCCC [Example 2, 4,5-dioctyloxyphthalic Acid]",0.82
